Measured data: PubChem BioAssay AID1224827 (NIAID, 2016)
Screen: 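Retest primary hits on a TNF reporter with six siRNAs per gene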 (follow-up of hits). Cells: RAW264.7 G9 mouse macrophage reporter clone. Knock-down reagent: single siRNA against mouse genes, 100 nM siRNA. Time to read-out: siRNA for 2 days, then LPS about 16 h. Challenge: bacterial lipopolysaccharide (LPS), 10 ng/ml, cells fixed after overnight (about 16 h) stimulation. Measured: 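TNF promoter reporter red fluorescence in nuclei, background subtracted, normalised per plate and to non-targeting control siRNA, as z-scores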. Direction: TNF reporter z-score, mean and TNF reporter z-score: higher = stronger Tnf promoter reporter signal; gene median z, three same-vendor siRNAs: higher = stronger Tnf reporter signal for the gene. Rule for the call: 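An siRNA is called active when its mean z-score over replicates is at least +2 or at most -2; control wells get no call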.
Shown is one part, drawn at random, of about 3,800 reagents. About 2,200 of all reagents (57%) were called active. 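Active means a strong reporter change in either direction; calls are per siRNA, not per gene; qiagen siRNAs gave weaker effects.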 Reagents against one gene are numbered here.

TNF reporter z-score, mean | gene median z, three same-vendor siRNAs | TNF reporter z-score, repeat 1 | TNF reporter z-score, repeat 2 | Call | Gene | siRNA no.
2.93 | -0.978 | 5.72 | 0.142 | active | Cyp4a31 | 1
-0.978 | -0.978 | -0.836 | -1.12 | inactive | Cyp4a31 | 2
-2.42 | -0.978 | -3.23 | -1.61 | active | Cyp4a31 | 3
-0.777 | -2.7 | -1.22 | -0.33 | inactive | Aprt | 1
-2.7 | -2.7 | -2.43 | -2.97 | active | Aprt | 2
-3.68 | -2.7 | -3.65 | -3.7 | active | Aprt | 3
2.2 | 1.24 | 3.06 | 1.33 | active | Aprt | 4
0.223 | 1.24 | 1.71 | -1.27 | inactive | Aprt | 5
-0.212 | 1.24 | 1.14 | -1.56 | inactive | Aprt | 6
-2.02 | -2.46 | -2.46 | -1.59 | active | Hsd17b6 | 1
-2.32 | -2.46 | -2.46 | -2.17 | active | Hsd17b6 | 2
-4.7 | -2.46 | -4.55 | -4.86 | active | Hsd17b6 | 3
1.1 | -0.541 | 2.59 | -0.394 | inactive | Hsd17b6 | 4
0.271 | -0.541 | 1.23 | -0.688 | inactive | Hsd17b6 | 5
-2.36 | -0.541 | -1.85 | -2.87 | active | Hsd17b6 | 6
-2.05 | -2.46 | -2.23 | -1.88 | active | Slc16a11 | 1
-2.49 | -2.46 | -2.6 | -2.37 | active | Slc16a11 | 2
-3.29 | -2.46 | -2.54 | -4.03 | active | Slc16a11 | 3
2.22 | 0.844 | 3.44 | 1 | active | Slc16a11 | 4
1.52 | 0.844 | 2.71 | 0.337 | inactive | Slc16a11 | 5
0.367 | 0.844 | 0.687 | 0.0468 | inactive | Slc16a11 | 6
1.81 | -2.58 | 3.43 | 0.183 | inactive | Tnfrsf25 | 1
-2.58 | -2.58 | -2.84 | -2.33 | active | Tnfrsf25 | 2
-4.62 | -2.58 | -4.67 | -4.56 | active | Tnfrsf25 | 3
4.59 | 0.00604 | 8.43 | 0.752 | active | Tnfrsf25 | 4
1.64 | 0.00604 | 4.02 | -0.74 | inactive | Tnfrsf25 | 5
-2.56 | 0.00604 | -2.73 | -2.4 | active | Tnfrsf25 | 6

An excerpt from the list above:
TNF reporter z-score, mean | gene median z, three same-vendor siRNAs | TNF reporter z-score, repeat 1 | TNF reporter z-score, repeat 2 | Call | Gene | siRNA no.
0.367 | 0.844 | 0.687 | 0.0468 | inactive | Slc16a11 | 6
1.81 | -2.58 | 3.43 | 0.183 | inactive | Tnfrsf25 | 1
-2.58 | -2.58 | -2.84 | -2.33 | active | Tnfrsf25 | 2
-4.62 | -2.58 | -4.67 | -4.56 | active | Tnfrsf25 | 3

Continued.
TNF reporter z-score, mean | gene median z, three same-vendor siRNAs | TNF reporter z-score, repeat 1 | TNF reporter z-score, repeat 2 | Call | Gene | siRNA no.
-0.269 | -2.29 | 0.3 | -0.838 | inactive | Aqp3 | 1
-2.29 | -2.29 | -1.94 | -2.65 | active | Aqp3 | 2
-2.91 | -2.29 | -2.74 | -3.08 | active | Aqp3 | 3
5 | -1.25 | 7.85 | 2.15 | active | Aqp3 | 4
-1.34 | -1.25 | -1.13 | -1.55 | inactive | Aqp3 | 5
-2.48 | -1.25 | -1.37 | -3.59 | active | Aqp3 | 6
0.173 | -1.94 | 2.37 | -2.02 | inactive | Taar5 | 1
-1.75 | -1.94 | -1.64 | -1.86 | inactive | Taar5 | 2
-4.95 | -1.94 | -4.5 | -5.4 | active | Taar5 | 3
-1.21 | -2.4 | -0.444 | -1.98 | inactive | Taar5 | 4
-2.4 | -2.4 | -2.29 | -2.5 | active | Taar5 | 5
-4.04 | -2.4 | -4.36 | -3.72 | active | Taar5 | 6
-1.05 | -2.86 | -0.143 | -1.95 | inactive | Inhca | 1
-3.12 | -2.86 | -3.29 | -2.94 | active | Inhca | 2
-3.17 | -2.86 | -3.57 | -2.77 | active | Inhca | 3
1.29 | -0.00189 | 2.32 | 0.259 | inactive | Inhca | 4
-0.00189 | -0.00189 | -0.00986 | 0.00607 | inactive | Inhca | 5
-1.25 | -0.00189 | -0.0716 | -2.42 | inactive | Inhca | 6
6.35 | 1.9 | 5.74 | 6.96 | active | Cbln2 | 1
1.9 | 1.9 | 1.18 | 2.62 | inactive | Cbln2 | 2
-0.838 | 1.9 | -0.813 | -0.862 | inactive | Cbln2 | 3
3.39 | 0.0654 | 5.81 | 0.981 | active | Cbln2 | 4
0.163 | 0.0654 | 1.18 | -0.85 | inactive | Cbln2 | 5
-2.82 | 0.0654 | -2.82 | -2.83 | active | Cbln2 | 6
-0.553 | -2.79 | -1.09 | -0.0205 | inactive | Acot9 | 1
-2.79 | -2.79 | -3.02 | -2.56 | active | Acot9 | 2
-4.67 | -2.79 | -5.08 | -4.25 | active | Acot9 | 3
3.28 | -2.18 | 5.36 | 1.19 | active | Acot9 | 4
-2.18 | -2.18 | -1.83 | -2.52 | active | Acot9 | 5
-3.5 | -2.18 | -4.2 | -2.81 | active | Acot9 | 6
